{"sequences": {"note": "By UniProt entry, the sequences of proteins in these tests, tags left out. Residues count along the entry.", "UniProt P01031, 19-1676": "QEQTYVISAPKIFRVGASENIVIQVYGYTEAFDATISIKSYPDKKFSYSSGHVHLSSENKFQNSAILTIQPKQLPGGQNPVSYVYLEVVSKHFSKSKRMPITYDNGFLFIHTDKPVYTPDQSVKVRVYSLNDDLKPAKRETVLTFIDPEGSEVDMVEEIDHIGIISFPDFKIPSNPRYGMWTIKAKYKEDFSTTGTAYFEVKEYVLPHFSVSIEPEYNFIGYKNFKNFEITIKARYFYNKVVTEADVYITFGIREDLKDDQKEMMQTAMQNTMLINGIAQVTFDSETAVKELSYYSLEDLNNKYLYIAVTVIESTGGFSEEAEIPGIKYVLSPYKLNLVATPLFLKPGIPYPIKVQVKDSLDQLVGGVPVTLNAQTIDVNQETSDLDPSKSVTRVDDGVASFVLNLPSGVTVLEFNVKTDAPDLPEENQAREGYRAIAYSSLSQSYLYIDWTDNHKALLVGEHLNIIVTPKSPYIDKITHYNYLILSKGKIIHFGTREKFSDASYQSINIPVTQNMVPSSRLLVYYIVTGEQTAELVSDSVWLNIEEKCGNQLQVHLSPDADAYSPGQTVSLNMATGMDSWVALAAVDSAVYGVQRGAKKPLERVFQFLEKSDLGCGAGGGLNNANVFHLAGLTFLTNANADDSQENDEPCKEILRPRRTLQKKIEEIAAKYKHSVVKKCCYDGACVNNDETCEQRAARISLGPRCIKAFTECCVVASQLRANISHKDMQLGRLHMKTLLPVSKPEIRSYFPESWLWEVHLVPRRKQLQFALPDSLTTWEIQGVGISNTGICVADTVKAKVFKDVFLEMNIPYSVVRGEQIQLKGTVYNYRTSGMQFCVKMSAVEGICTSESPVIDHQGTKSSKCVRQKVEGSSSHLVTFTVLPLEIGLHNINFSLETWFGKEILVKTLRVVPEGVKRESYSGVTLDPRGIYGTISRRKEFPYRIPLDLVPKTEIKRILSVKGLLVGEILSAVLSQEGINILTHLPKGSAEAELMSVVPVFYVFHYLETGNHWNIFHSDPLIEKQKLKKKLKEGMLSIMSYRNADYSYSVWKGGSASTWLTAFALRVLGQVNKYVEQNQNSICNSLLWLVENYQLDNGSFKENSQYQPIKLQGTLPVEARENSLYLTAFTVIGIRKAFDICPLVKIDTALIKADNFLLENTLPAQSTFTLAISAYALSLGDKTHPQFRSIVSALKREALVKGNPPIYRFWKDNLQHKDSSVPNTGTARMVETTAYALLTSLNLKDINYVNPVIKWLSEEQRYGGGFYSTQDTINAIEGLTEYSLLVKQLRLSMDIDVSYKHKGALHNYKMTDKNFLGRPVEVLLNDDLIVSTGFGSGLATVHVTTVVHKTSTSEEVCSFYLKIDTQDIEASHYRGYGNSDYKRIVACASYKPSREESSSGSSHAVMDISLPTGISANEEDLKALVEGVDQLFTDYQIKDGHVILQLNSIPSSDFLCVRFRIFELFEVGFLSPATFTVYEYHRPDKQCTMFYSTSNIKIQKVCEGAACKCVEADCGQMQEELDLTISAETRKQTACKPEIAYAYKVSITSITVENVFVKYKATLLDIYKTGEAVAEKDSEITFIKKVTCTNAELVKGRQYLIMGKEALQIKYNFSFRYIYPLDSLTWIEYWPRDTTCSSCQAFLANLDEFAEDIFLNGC", "UniProt P13671, 22-934": "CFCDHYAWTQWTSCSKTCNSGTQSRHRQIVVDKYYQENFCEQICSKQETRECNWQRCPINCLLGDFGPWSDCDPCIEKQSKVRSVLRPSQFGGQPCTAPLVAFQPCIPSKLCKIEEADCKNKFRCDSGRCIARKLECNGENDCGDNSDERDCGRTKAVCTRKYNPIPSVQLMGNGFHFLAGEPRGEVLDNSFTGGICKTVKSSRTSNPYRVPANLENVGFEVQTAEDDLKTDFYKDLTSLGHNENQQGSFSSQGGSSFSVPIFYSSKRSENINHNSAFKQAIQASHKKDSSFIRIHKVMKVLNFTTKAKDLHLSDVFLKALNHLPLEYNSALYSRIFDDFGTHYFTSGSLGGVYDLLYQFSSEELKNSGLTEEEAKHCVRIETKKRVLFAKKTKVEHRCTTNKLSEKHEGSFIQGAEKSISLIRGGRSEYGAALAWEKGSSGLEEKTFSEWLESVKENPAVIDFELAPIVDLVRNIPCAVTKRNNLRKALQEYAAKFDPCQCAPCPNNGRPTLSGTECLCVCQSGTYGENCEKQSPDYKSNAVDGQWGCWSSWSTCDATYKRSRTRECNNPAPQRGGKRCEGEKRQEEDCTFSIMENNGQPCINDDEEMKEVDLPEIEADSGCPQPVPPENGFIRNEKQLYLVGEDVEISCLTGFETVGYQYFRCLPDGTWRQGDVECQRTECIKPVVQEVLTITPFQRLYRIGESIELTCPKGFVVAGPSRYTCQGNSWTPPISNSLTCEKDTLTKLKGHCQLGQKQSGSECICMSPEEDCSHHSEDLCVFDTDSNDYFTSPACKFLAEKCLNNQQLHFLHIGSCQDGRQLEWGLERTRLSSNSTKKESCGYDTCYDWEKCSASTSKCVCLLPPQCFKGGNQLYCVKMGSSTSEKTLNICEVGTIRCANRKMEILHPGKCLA", "UniProt P02748, 22-559": "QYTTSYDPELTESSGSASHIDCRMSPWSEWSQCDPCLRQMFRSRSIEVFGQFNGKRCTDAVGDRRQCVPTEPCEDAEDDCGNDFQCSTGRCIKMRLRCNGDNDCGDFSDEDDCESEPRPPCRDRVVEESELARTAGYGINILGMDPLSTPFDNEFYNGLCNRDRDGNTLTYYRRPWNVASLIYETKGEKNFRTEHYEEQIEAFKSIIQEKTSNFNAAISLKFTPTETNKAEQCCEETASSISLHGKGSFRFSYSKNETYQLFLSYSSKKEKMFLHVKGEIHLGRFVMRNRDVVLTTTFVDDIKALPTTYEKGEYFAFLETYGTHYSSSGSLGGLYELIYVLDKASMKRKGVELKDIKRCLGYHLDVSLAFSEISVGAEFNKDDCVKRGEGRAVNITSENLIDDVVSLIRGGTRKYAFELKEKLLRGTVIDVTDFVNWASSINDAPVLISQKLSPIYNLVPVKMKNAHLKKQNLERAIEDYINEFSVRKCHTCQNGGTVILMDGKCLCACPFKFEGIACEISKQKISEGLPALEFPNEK"}, "source": "patent US10588879B2", "about": "“Treatment of age-related macular degeneration” (Aurin Biotech Inc., priority 2011, dated 2020)", "key": {"C5": {"biological_target": "T1, C5 (Homo sapiens, UniProt P01031)", "T1 construct": "purchased Complement technology Inc., Tyler, TX", "assay": "Fluorometric binding of ATA to immobilized protein", "conditions": "protein 32 ng/mL; ATA 100 microgm/mL"}, "C6": {"biological_target": "T2, C6 (Homo sapiens, UniProt P13671)", "T2 construct": "purchased Sigma, St. Louis, MO", "assay": "Fluorometric binding of ATA to immobilized protein", "conditions": "protein 32 ng/mL; ATA 100 microgm/mL"}, "[1]": {"biological_target": "T3, membrane attack complex (addition of C9 to C5b678) (Homo sapiens, UniProt P02748)", "T3 construct": "from tissue; host or cells: normal human serum (with antibody-sensitized sheep red blood cells)", "assay": "Western blot variation of CH50 assay: stage of complement blockade", "format": "biochemical", "conditions": "human serum diluted 16 fold, pre-treated 30 min; blots with antibodies to C6, C7, C8, C9", "method": "Normal human serum was pre-treated with aliquots of aqueous solutions of ATA, AQA, AHA and ATAC prior to adding sheep red blood cells sensitized to human complement. The reaction mixtures were incubated at 37° C. for 1 h. Aliquots were loaded on 10% polyacrylamide gels and subjected to SDS-PAGE. Proteins were transferred to membranes and developed with appropriate primary antibodies to complement proteins (Table 1): FIG. 4A: Western blots of membranes developed with antibodies to C1q, C3, C4 and C5. Lane 1, untreated serum; lane 2, serum with red blood cells added; lane 3 serum with red blood cells protected with ATAC. Notice that in untreated serum, bands for C1q, C3, C4, and C5 were readily detected. In lanes 2 and 3, the activated products C3d, C4d, and C5a were detected indicating opsonization had taken place. […] It can be seen that C5b-9 is […] detected upon probing with C6, C7, C8 and C9, thus establishing that the ATAC block was at the C9 stage. […]\nTo determine at which stage of assembly of the membrane attack complex was being blocked, additional analyses were carried. […] The C6 antibody detected C5b6, C5b67, and C5b678. The C7 antibody detected C5b67 and C5b678, while the C8 antibody detected C5b678. […]"}, "C4": {"test_system": "C4", "assay": "Fluorometric binding of ATA to immobilized protein", "design": "species or system human", "conditions": "protein 32 ng/mL; ATA 100 microgm/mL"}, "C9": {"biological_target": "T4, C9 (Homo sapiens, UniProt P02748)", "T4 construct": "purchased Sigma, St. Louis, MO", "assay": "Fluorometric binding of ATA to immobilized protein", "conditions": "protein 1-32 ng/mL; ATA 100 microgm/mL"}}, "note": "At least one structure is not confirmed: it was looked up by name or label, or the drawing left a doubt.", "data": [{"smiles": "O=C(O)C1=CC(=C(c2ccc(O)c(C(=O)O)c2)c2ccc(O)c(C(=O)O)c2)C=CC1=O", "note": "[ATA, 5,5′-((3-carboxy-4-oxocyclohexa-2,5-dienn-1-ylidene)methylene)bis(2-hydroxybenzoic acid)]", "values": [{"measurement": "binding of ATA to C5", "setting": "C5", "result": "did not bind"}, {"measurement": "binding of ATA to C6", "setting": "C6", "result": "did not bind"}, {"measurement": "stage at which membrane attack complex formation is arrested", "setting": "[1]", "result": "becomes arrested at the C8 stage"}, {"measurement": "binding of ATA to C4", "setting": "C4", "result": "did not bind"}, {"measurement": "binding of ATA to C9", "setting": "C9", "result": "bound to both Factor D and C9 in a concentration dependent manner"}]}]}
